In the assay the test system is HEK293A TEAD-LUC reporter. The experiment in a line: TEAD-luciferase reporter activity (YAP activation), robust Z score vs plate; higher = stronger YAP/TEAD activation. Particulars: 24 h.

Structures can show the parent of a compound that is named as a salt. The list shows a part of the results. This data set is noisy: repeats of one test often differ as much as different tests do.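 The human kidney-derived cells carry a stably integrated construct of eight TEAD-binding elements driving luciferase, read by luminescence in a drug-repurposing library screen. A compound counts as a hit when its signal is more than five robust Z scores above the plate mean.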

In the case of `CCN/C(=N\S(=O)(=O)c1ccc(CNC(=O)c2ccccc2)s1)N1CC(CC)C=N1` (stereo not drawn), the TEAD-luciferase reporter activity (compound concentration: 200 nM) is inactive: -0.752, the TEAD-luciferase reporter activity (compound concentration: 2 uM) is inactive: -0.683 and the TEAD-luciferase reporter activity (compound concentration: 10 uM) was inactive: 0.353.
With `CC1(C)[C@H](C(=O)O)N2C(=O)C[C@H]2S1(=O)=O` [Sulbactam], the TEAD-luciferase reporter activity by setting is: (compound concentration: 200 nM) inactive: 0.414; (compound concentration: 10 uM) inactive: 0.187.
For the molecule `CC1(C)[C@H](C(=O)O)N2C(=O)C[C@H]2S1(=O)=O` [sulbactam], the TEAD-luciferase reporter activity (compound concentration: 2 uM) is inactive: 0.023.
Consider `Cc1ccc(S(=O)(=O)NC(=O)N2CCC(N3CCC(Oc4ccc(Cl)c(Cl)c4)CC3)CC2)cc1`, for which the TEAD-luciferase reporter activity by setting is: (compound concentration: 200 nM) inactive: 1.08; (compound concentration: 2 uM) inactive: 0.913; (compound concentration: 10 uM) inactive: 1.19.
As for `CC1=NOC2(CCN(C(=O)c3ccc4c(c3)OCO4)CC2)C1`, the TEAD-luciferase reporter activity (compound concentration: 200 nM) is inactive: -0.221 and the TEAD-luciferase reporter activity (compound concentration: 10 uM) was inactive: 2.4.
Consider `C[C@@H]1CCCN1CCCOc1ccc(-c2ccc(=O)[nH]n2)cc1`, for which the TEAD-luciferase reporter activity is inactive: -1.21 (compound concentration: 200 nM), inactive: -1 (compound concentration: 2 uM) and inactive: 1.39 (compound concentration: 10 uM).
With `NC(=O)N1c2ccccc2CC(=O)c2ccccc21`, the TEAD-luciferase reporter activity (compound concentration: 200 nM) is inactive: -1.6 and the TEAD-luciferase reporter activity (compound concentration: 10 uM) is inactive: -0.472.
Regarding `NC(=O)N1c2ccccc2CC(=O)c2ccccc21` [oxcarbazepine MR], where the note is “compound concentration: 2 uM”, the TEAD-luciferase reporter activity is inactive: -1.53.
Regarding `C[C@H]1C[C@H]2[C@@H]3CCC4=CC(=O)C=C[C@]4(C)[C@H]3C(=O)C[C@]2(C)[C@@]1(O)C(=O)CO` [Betapar (Meprednisone)], the TEAD-luciferase reporter activity is, setting by setting: (compound concentration: 200 nM) inactive: -0.232; (compound concentration: 10 uM) inactive: 0.0996.
For `C[C@H]1C[C@H]2[C@@H]3CCC4=CC(=O)C=C[C@]4(C)[C@H]3C(=O)C[C@]2(C)[C@@]1(O)C(=O)CO`, for the setting “compound concentration: 2 uM”, the TEAD-luciferase reporter activity is inactive: -1.01.
Consider `CCOC(=O)CCc1ccccc1OC[C@@H](O)CNC(C)C`, for which the TEAD-luciferase reporter activity runs as follows: (compound concentration: 200 nM) inactive: -0.8; (compound concentration: 2 uM) inactive: -0.208; (compound concentration: 10 uM) inactive: -0.263.
On the same counts, the results for `COC(=O)C1=C(C#N)NC(C)=C(C(=O)OC(C)C)C1c1cccc([N+](=O)[O-])c1` (stereo not drawn) [nilvadipine] are inactive: -0.294, inactive: -0.389 and inactive: -1.1.
For `O=C1c2ccccc2CN2C(=O)c3ccccc3CN12` [diftalone], the TEAD-luciferase reporter activity is, setting by setting: (compound concentration: 200 nM) inactive: -0.844; (compound concentration: 2 uM) inactive: 4.19; (compound concentration: 10 uM) inactive: -0.596.
On the same counts, the results for `Cc1c(C(=O)c2ccccc2)c(=O)n(C)c(=O)n1C` are inactive: -1.54, inactive: -1.04 and inactive: 1.3.
Take `COc1cc(CCCCN2CCCN(CCCCc3cc(OC)c(OC)c(OC)c3)CC2)cc(OC)c1OC`: the TEAD-luciferase reporter activity was inactive: -1.45 (compound concentration: 200 nM), inactive: -0.831 (compound concentration: 2 uM) and inactive: -0.0597 (compound concentration: 10 uM).
For `CN(C(=O)c1ccc(F)cc1C(F)(F)F)C1CCN(c2nnc(-c3ccnn3C)c3ccccc23)CC1` [Taladegib hydrochloride], in that order: inactive: -0.892, inactive: -0.838 and inactive: -0.826.
For `CC(=O)OCC(=O)[C@H]1CCC2C3CC=C4C[C@@H](O)CC[C@]4(C)C3CC[C@@]21C` (stereo partly drawn), in that order: inactive: -1.16, inactive: -0.81 and inactive: 1.75.
With `N[C@@H](CSCC(=O)O)C(=O)O` [carbocisteine, Sopar], the TEAD-luciferase reporter activity by setting is: (compound concentration: 200 nM) inactive: -0.695; (compound concentration: 10 uM) inactive: 0.881.
`CCC(C(=O)NC(N)=O)c1ccccc1` (stereo not drawn): the TEAD-luciferase reporter activity was inactive: 1.18 (compound concentration: 200 nM), inactive: -1.65 (compound concentration: 2 uM) and inactive: 0.612 (compound concentration: 10 uM).
`COc1cccc(CCc2ccccc2OCC[C@H]2C[C@@H](O)CN2C)c1`: the TEAD-luciferase reporter activity is, setting by setting: (compound concentration: 200 nM) inactive: -0.832; (compound concentration: 2 uM) inactive: -0.988; (compound concentration: 10 uM) inactive: -0.297.
For `CCCC=C1NN(c2ccccc2C(F)(F)F)C(=O)N1Cc1ccc(-c2ccccc2S(=O)(=O)NC(=O)c2sccc2C)cc1`, in that order: inactive: 3.24, inactive: 3.51 and active: 9.32.
Turning to `COc1cc2nc(N(C)CCCNC(=O)C3CCCO3)nc(N)c2cc1OC` (stereo not drawn), the TEAD-luciferase reporter activity (compound concentration: 200 nM) was inactive: -3.15 and the TEAD-luciferase reporter activity (compound concentration: 10 uM) was inactive: 0.289.
Turning to `COc1cc2nc(N(C)CCCNC(=O)C3CCCO3)nc(N)c2cc1OC` (stereo not drawn) [alfuzosin], the TEAD-luciferase reporter activity (compound concentration: 2 uM) was inactive: -0.402.
Turning to `Nc1ccc(C(=O)Oc2ccccc2)c(O)c1`, the TEAD-luciferase reporter activity was inactive: -0.892 (compound concentration: 200 nM), inactive: 2.46 (compound concentration: 2 uM) and inactive: 2.55 (compound concentration: 10 uM).
On the same counts, the results for `Oc1cc(O)c(Cl)cn1` [Gimeracil] are inactive: -0.916, inactive: 0.0738 and inactive: -0.429.
In the case of `C[C@H](NC(=O)c1c(N)nn2cccnc12)c1cc2cccc(C#Cc3cnn(C)c3)c2c(=O)n1-c1ccccc1`, the TEAD-luciferase reporter activity is inactive: 0.0691 (compound concentration: 200 nM), inactive: -0.278 (compound concentration: 2 uM) and inactive: 1.37 (compound concentration: 10 uM).
For `CNC1CCCc2c(OC)ccc(Cl)c21` (stereo not drawn), in that order: inactive: 0.622, inactive: -0.899 and inactive: -0.27.
For `Nc1ccn([C@@H]2C(F)=C(CO)[C@@H](O)[C@H]2O)c(=O)n1`, in that order: inactive: -0.508, inactive: 0.864 and inactive: 1.56.
On the same counts, the results for `CC(=O)c1ccc2c(c1)c1cc(C(C)=O)ccc1n2CCNC(C)C` are inactive: 1.34, inactive: -1.73 and active: 5.48.

The values above are taken from the supplement of paper PMC10735217.
